Results from patent US20040110844A1, “Anti-tumor pharmaceutical composition comprising N-vanillyl fatty acid amide” (KUREHA CHEMICAL INDUSTRY COMPANY, Limited, priority 2002, published 2004).

Assay: Degrees of hotness at the relative value by organoleptic examination
Details: minimum value of hotness detected with the tongue of examiner; capsaicin regarded as 1

Row | SMILES | degree of hotness (relative value)
1 | COc1cc(CNC(=O)CCCCC=CC(C)C)ccc1O [capsaicin, 8-methyl-N-vanillyl-6-nonenamide] | 1
2 | CC/C=C\C/C=C\C/C=C\C/C=C\C/C=C\C/C=C\CCC(=O)NCc1ccc(O)c(OC)c1 [Dohevanil, N-vanillyl-4,7,10,13,16,19-Docosahexaenamide] | 10^−5
